Source: PubChem BioAssay AID1259405 (NCATS, 2018)
The deposit covers about 50,000 reagents; this is a part drawn at random. About 4,000 of all reagents (8%) were called active. 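Mouse siRNA library applied to hamster cells; one well for each siRNA.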 Entries without a mark were called inactive. The numbers tell different reagents against one gene apart.

Aim: 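Silenced genes that increase secreted GFP made by CHO cells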 (primary screen)
System: Chinese hamster CHO-K1 ovary cells with stable secreted eGFP expression
Reagent: single siRNA against mouse genes, 0.8 pmol siRNA per well (2 µl of 400 nM stock)
Duration: 3 days
Measurement: 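Per-well intracellular GFP measured by laser scanning cytometry, plus viability from ATP luminescence, each relative to plate median of non-targeting control wells, in %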
Scale: GFP, % of control: higher = more GFP per well, higher productivity; viability (ATP), % of control: higher = more viable cells (more ATP)
Hit rule: 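Called active when intracellular GFP, relative to negative control, is at or above 120%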

| gene | siRNA no. | GFP, % of control | viability (ATP), % of control |
| --- | --- | --- | --- |
| Ncan (neurocan) | 1 | 125 (active) | 119 |
| Ncan (neurocan) | 2 | 78.6 | 80.7 |
| Gm14461 (predicted gene 14461) | 1 | 102 | 77.4 |
| Gm14461 (predicted gene 14461) | 2 | 40.4 | 47.9 |
| Gm14461 (predicted gene 14461) | 3 | 85.9 | 79 |
| AW209491 (expressed sequence AW209491) | 1 | 46.3 | 57.3 |
| AW209491 (expressed sequence AW209491) | 2 | 89.5 | 89.1 |
| AW209491 (expressed sequence AW209491) | 3 | 53.3 | 73.9 |
| Ano2 (anoctamin 2) | 1 | 47.2 | 50.5 |
| Ano2 (anoctamin 2) | 2 | 67.9 | 127 |
| Ano2 (anoctamin 2) | 3 | 0 | 194 |
| Igfbp7 (insulin-like growth factor binding protein 7) | 1 | 42.4 | 38.7 |
| Igfbp7 (insulin-like growth factor binding protein 7) | 2 | 38.8 | 39.8 |
| Hipk1 (homeodomain interacting protein kinase 1) | 1 | 101 | 45.5 |
| Hipk1 (homeodomain interacting protein kinase 1) | 2 | 69.2 | 59.5 |
| Hipk1 (homeodomain interacting protein kinase 1) | 3 | 78.2 | 91.2 |
| Zfp935 (zinc finger protein 935) | 1 | 68.9 | 88.5 |
| Zfp935 (zinc finger protein 935) | 2 | 68.2 | 82 |
| Zfp935 (zinc finger protein 935) | 3 | 87.8 | 101 |
| Cmtm3 (CKLF-like MARVEL transmembrane domain containing 3) | 1 | 79.4 | 86.8 |
| Cmtm3 (CKLF-like MARVEL transmembrane domain containing 3) | 2 | 86.6 | 72.7 |
| Cmtm3 (CKLF-like MARVEL transmembrane domain containing 3) | 3 | 97 | 106 |
| Tmem14a (transmembrane protein 14A) | 1 | 62.4 | 75.2 |
| Tmem14a (transmembrane protein 14A) | 2 | 99.6 | 128 |
| Tmem14a (transmembrane protein 14A) | 3 | 74.7 | 90.6 |
| Cnnm2 (cyclin M2) | 1 | 55.1 | 83.4 |
| Cnnm2 (cyclin M2) | 2 | 91.9 | 92.2 |
| Cnnm2 (cyclin M2) | 3 | 67.1 | 94.9 |
| Ttc19 (tetratricopeptide repeat domain 19) | 1 | 86.9 | 70.1 |
| Ttc19 (tetratricopeptide repeat domain 19) | 2 | 57 | 63.2 |
| Ttc19 (tetratricopeptide repeat domain 19) | 3 | 80.9 | 68 |
| Calcrl (calcitonin receptor-like) | 1 | 26.7 | 41.3 |
| Calcrl (calcitonin receptor-like) | 2 | 113 | 82.5 |
| Calcrl (calcitonin receptor-like) | 3 | 101 | 61 |
| Siva1 (SIVA1, apoptosis-inducing factor) | 1 | 46.6 | 57.1 |
| Siva1 (SIVA1, apoptosis-inducing factor) | 2 | 57.6 | 39.8 |
| Maged1 (MAGE family member D1) | 1 | 28.2 | 94.9 |
| Maged1 (MAGE family member D1) | 2 | 74.5 | 50.5 |
| Maged1 (MAGE family member D1) | 3 | 111 | 120 |
| Unc119 (unc-119 lipid binding chaperone) | 1 | 118 | 116 |
| Unc119 (unc-119 lipid binding chaperone) | 2 | 84.1 | 91 |
| Unc119 (unc-119 lipid binding chaperone) | 3 | 85.7 | 75.3 |
| Tmem72 (transmembrane protein 72) | 1 | 59.6 | 67.3 |
| Tmem72 (transmembrane protein 72) | 2 | 86.6 | 79.9 |
| Tmem72 (transmembrane protein 72) | 3 | 121 (active) | 122 |
| Vmn1r188 (vomeronasal 1 receptor 188) | 1 | 55.1 | 75.9 |
| Vmn1r188 (vomeronasal 1 receptor 188) | 2 | 65.1 | 61.4 |
| Vmn1r188 (vomeronasal 1 receptor 188) | 3 | 68.4 | 88.1 |
| Kpna3 (karyopherin subunit alpha 3) | 1 | 120 | 99.7 |
| Kpna3 (karyopherin subunit alpha 3) | 2 | 39.1 | 40 |
| Kpna3 (karyopherin subunit alpha 3) | 3 | 81.2 | 75.5 |
| Bpifa2 (BPI fold containing family A, member 2) | 1 | 85.2 | 79.5 |
| Bpifa2 (BPI fold containing family A, member 2) | 2 | 47.6 | 66.9 |
| Bpifa2 (BPI fold containing family A, member 2) | 3 | 97.5 | 103 |
| Or4c104 (olfactory receptor family 4 subfamily C member 104) | 1 | 52.2 | 67.8 |
| Or4c104 (olfactory receptor family 4 subfamily C member 104) | 2 | 46.1 | 66.1 |
| Or4c104 (olfactory receptor family 4 subfamily C member 104) | 3 | 62.3 | 75.1 |
| Mbd6 (methyl-CpG binding domain protein 6) | 1 | 87.8 | 85 |
| Mbd6 (methyl-CpG binding domain protein 6) | 2 | 56.7 | 63.5 |
| Mbd6 (methyl-CpG binding domain protein 6) | 3 | 81.6 | 81.6 |
| Mrpl35 (mitochondrial ribosomal protein L35) | 1 | 59.9 | 71.9 |
| Mrpl35 (mitochondrial ribosomal protein L35) | 2 | 39.2 | 60.5 |
| Mrpl35 (mitochondrial ribosomal protein L35) | 3 | 104 | 54.5 |
| Dcbld1 (discoidin, CUB and LCCL domain containing 1) | 1 | 69.4 | 60.2 |
| Dcbld1 (discoidin, CUB and LCCL domain containing 1) | 2 | 72.3 | 83.6 |
| Dcbld1 (discoidin, CUB and LCCL domain containing 1) | 3 | 77 | 82 |
| Laptm4b (lysosomal-associated protein transmembrane 4B) | 1 | 75 | 84.6 |
| Laptm4b (lysosomal-associated protein transmembrane 4B) | 2 | 82.4 | 71.7 |
| Laptm4b (lysosomal-associated protein transmembrane 4B) | 3 | 83 | 94.6 |
| Msantd2 (Myb/SANT-like DNA-binding domain containing 2) | 1 | 120 | 122 |
| Msantd2 (Myb/SANT-like DNA-binding domain containing 2) | 2 | 56.9 | 69.5 |
| Msantd2 (Myb/SANT-like DNA-binding domain containing 2) | 3 | 141 (active) | 128 |
| Atxn7 (ataxin 7) | 1 | 176 (active) | 36.3 |
| Atxn7 (ataxin 7) | 2 | 83.3 | 69.3 |
| Atxn7 (ataxin 7) | 3 | 49.5 | 67.7 |
| Fibcd1 (fibrinogen C domain containing 1) | 1 | 123 (active) | 136 |
| Fibcd1 (fibrinogen C domain containing 1) | 2 | 88 | 91.6 |
| Slc30a8 | 1 | 89.4 | 85.8 |
| Slc30a8 | 2 | 96 | 97.5 |
| Slc30a8 | 3 | 90.3 | 85.1 |
| Dnajb9 (DnaJ heat shock protein family (Hsp40) member B9) | 1 | 56.4 | 69 |
| Dnajb9 (DnaJ heat shock protein family (Hsp40) member B9) | 2 | 62.9 | 79.2 |
| Dnajb9 (DnaJ heat shock protein family (Hsp40) member B9) | 3 | 50 | 68.3 |
| Dcaf4 (DDB1 and CUL4 associated factor 4) | 1 | 65.7 | 65.9 |
| Dcaf4 (DDB1 and CUL4 associated factor 4) | 2 | 107 | 82.2 |
| Dcaf4 (DDB1 and CUL4 associated factor 4) | 3 | 56.5 | 73.4 |

A run of entries taken from the entries so far:
| gene | siRNA no. | GFP, % of control | viability (ATP), % of control |
| --- | --- | --- | --- |
| Tmem72 (transmembrane protein 72) | 3 | 121 (active) | 122 |
| Vmn1r188 (vomeronasal 1 receptor 188) | 1 | 55.1 | 75.9 |
| Vmn1r188 (vomeronasal 1 receptor 188) | 2 | 65.1 | 61.4 |
| Vmn1r188 (vomeronasal 1 receptor 188) | 3 | 68.4 | 88.1 |
| Kpna3 (karyopherin subunit alpha 3) | 1 | 120 | 99.7 |
| Kpna3 (karyopherin subunit alpha 3) | 2 | 39.1 | 40 |
